{
  "sequences": {"note": "Sequences of proteins named here, by UniProt entry; tags and fusion partners are left off.", "UniProt P32121": "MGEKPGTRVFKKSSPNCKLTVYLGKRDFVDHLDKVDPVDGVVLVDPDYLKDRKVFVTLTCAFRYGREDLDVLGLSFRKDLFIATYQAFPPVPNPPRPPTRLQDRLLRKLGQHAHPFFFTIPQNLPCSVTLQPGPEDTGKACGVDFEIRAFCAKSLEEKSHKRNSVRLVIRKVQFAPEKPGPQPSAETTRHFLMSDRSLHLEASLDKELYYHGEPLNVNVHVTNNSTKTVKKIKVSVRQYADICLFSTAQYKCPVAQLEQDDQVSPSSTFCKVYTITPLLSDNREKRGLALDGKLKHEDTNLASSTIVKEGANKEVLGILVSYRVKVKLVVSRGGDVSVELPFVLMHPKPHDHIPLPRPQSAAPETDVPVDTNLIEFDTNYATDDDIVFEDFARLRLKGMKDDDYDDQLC"},
  "source": "paper doi:10.1101/2022.03.18.484968",
  "key": {"chemokine receptor CCR1 [1]": {"target": "T1, chemokine receptor CCR1 (UniProt P32246)", "T1 sequence": "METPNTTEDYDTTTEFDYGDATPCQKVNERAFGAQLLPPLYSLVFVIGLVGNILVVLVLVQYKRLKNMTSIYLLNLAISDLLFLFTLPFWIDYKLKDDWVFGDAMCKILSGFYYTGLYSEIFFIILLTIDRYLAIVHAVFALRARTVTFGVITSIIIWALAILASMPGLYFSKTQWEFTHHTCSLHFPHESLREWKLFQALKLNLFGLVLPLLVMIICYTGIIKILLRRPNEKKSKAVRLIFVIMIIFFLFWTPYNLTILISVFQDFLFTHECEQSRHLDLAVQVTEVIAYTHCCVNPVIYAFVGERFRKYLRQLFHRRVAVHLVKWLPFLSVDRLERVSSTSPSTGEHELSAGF", "assay": "co-IP"}, "chemokine receptor CCR1 [2]": {"target": "T1, chemokine receptor CCR1", "assay": "co-IP", "remark": "listed apart in the source"}},
  "note": "Where two headings read alike, the source gives them in different places. Results are given in words; binding and its absence hold for the method and conditions named. In cells and extracts the contact can be indirect. Some entries that bind do so weakly or less than the wild type.",
  "data": [
    {"substance": "β-arrestin 2 (from UniProt P32121 1-409)", "values": [
      {"measurement": "binding", "setting": "chemokine receptor CCR1 [1]", "result": "binds weakly"},
      {"measurement": "binding", "setting": "chemokine receptor CCR1 [2]", "result": "binds"}
    ]}
  ]
}
